Measured values: PMC7841167
No constants are given. Whether binding was seen depends on the method and setting. Binding seen in cells or lysates may run through a third protein. These calls come from enrichment with a bait or labelling near it, and not all partners need be listed. Sequences can lack the tags named with a protein.

The chains behind the UniProt entries cited, without tags or fusion partners.
UniProt Q8VEK3: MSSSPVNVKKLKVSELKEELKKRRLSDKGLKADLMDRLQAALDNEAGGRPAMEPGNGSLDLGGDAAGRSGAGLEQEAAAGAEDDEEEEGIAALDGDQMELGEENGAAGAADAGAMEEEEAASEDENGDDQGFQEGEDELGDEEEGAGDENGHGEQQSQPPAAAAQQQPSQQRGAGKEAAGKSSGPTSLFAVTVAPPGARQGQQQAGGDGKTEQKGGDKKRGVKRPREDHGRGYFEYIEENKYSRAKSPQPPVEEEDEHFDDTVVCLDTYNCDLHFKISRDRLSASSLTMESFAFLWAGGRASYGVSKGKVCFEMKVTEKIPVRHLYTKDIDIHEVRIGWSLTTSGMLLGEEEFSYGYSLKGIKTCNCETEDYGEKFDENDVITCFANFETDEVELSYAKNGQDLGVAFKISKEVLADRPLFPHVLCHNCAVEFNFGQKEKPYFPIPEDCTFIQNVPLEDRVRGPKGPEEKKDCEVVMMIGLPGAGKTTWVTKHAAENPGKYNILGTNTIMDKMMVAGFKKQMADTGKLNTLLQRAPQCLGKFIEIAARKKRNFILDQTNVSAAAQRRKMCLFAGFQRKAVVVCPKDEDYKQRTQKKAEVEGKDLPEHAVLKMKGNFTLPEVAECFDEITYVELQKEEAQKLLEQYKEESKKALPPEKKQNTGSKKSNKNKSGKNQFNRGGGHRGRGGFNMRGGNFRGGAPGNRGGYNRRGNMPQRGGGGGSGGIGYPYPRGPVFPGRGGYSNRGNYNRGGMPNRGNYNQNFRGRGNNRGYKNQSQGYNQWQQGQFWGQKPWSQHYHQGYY
UniProt Q5SF07: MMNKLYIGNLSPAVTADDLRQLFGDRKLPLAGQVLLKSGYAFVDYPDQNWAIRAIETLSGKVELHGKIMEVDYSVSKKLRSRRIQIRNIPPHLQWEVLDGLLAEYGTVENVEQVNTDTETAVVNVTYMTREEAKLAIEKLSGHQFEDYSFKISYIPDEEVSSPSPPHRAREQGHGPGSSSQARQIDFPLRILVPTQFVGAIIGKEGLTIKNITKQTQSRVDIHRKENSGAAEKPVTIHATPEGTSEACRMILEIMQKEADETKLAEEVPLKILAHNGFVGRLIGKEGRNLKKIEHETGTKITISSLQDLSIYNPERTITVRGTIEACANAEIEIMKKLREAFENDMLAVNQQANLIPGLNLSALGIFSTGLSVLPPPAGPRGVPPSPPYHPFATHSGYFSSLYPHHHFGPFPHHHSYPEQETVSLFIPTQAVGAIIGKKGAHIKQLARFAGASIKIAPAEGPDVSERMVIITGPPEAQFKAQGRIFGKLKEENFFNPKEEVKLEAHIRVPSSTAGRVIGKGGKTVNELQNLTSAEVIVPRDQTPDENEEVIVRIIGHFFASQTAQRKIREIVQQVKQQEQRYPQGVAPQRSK

Molecular target: T1, Lin28a-Flag (mouse) (UniProt Q8K3Y3)
T1 sequence: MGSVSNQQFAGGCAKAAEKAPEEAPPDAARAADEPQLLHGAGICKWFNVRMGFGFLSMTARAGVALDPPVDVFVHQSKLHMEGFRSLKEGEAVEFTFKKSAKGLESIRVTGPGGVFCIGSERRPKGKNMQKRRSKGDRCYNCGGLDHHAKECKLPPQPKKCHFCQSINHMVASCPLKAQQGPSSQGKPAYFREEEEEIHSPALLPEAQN
Assay: affinity purification with mass spectrometry; lysate (polysome lysis buffer) of EpiLCs transfected with Lin28a-Flag run on Superose 6 Increase 10/300 GL (KCl 100 mM, TrisCl pH 7.8 20 mM, MgCl2 5 mM); Lin28a-containing fractions immunoprecipitated with anti-Flag affinity gel; nanoLC-ESI-Q-Orbitrap-MS/MS; mock-transfected cells as background; a parallel run with lysate pretreated with 40 µg/ml RNase A

For Hnrnpk (from UniProt P61979 1-463), the binding was “binds”.

With Hnrnpu (from UniProt Q8VEK3 1-800) the binding was “binds”.

In the case of Igf2bp2 (from UniProt Q5SF07 1-592), the binding was “binds”.
